Here are results for one molecule from patent US20110144312A1.

No constants are given. Whether binding was seen depends on the method and setting. For part of these data: Binding calls can cover weak binding; strength is not graded here.

In assay [1] the target is chimpanzee IL-10Rα on PBMC (chimpanzee). The assay is described as follows: flow cytometry on chimpanzee PBMC.
Assay [2] addresses rat IL-10Rα on splenocytes (rat). As to the kind of experiment: flow cytometry on splenocytes. Background: Flow cytometry measures light scatter and fluorescence of single cells or particles in a stream.
Assay [3] deals with chimpanzee IL-10Rα on PBMC (chimpanzee). The assay is described as follows: flow cytometry on chimpanzee PBMC, lymphocyte gate; competitor: recombinant human IL-10Rα [B].

B1: 136D29 (antibody, V domains shown)
VH: QVQLVQSGAEVKKPGASVKVSCKVSGFTLTELSMHWVRQAPGKGLEWMGGFDPDDGETIYAQKFQGRVSMTEDTSTDTAYMELSSLRSEDTAVYYCATGGYYGPVGMDVWGQGTTVTVSS
VL: DIQMTQSPSSLSASVGDRVTITCRASQGISIWLAWYQQKPEKAPKSLIYAASSLQSGVPSRFSGSGSGTDFTLTISSLQPEDFATYYCQQYNSYPLTFGGGTKVEIK
In the case of B1, the binding entry is listed as “binds” in assay [1], “no binding” in assay [2] and “binds” in assay [3].
